The numbers were not newly measured in patent publication US20100179144A1, “QUINAZOLINE DERIVATIVES AS P13 KINASE INHIBITORS” (priority 2007, published 2010), which cites them from elsewhere.

By UniProt entry, the sequences of proteins in these tests, tags left out.
UniProt P68400, whole entry: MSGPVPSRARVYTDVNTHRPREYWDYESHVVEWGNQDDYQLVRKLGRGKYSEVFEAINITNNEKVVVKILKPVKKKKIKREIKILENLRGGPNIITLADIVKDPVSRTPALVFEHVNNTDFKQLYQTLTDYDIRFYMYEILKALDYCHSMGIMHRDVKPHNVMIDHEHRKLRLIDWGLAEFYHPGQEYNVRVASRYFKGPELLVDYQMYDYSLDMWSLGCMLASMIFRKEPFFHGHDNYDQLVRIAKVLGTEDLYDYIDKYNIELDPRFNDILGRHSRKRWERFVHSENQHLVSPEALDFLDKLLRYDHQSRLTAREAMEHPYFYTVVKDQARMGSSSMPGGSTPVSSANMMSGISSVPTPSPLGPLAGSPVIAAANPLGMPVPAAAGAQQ

Each structure is given as a SMILES string. pIC50: −log10 of the molar value.

One series has as its target CK2 protein kinase (Homo sapiens, UniProt P68400). Particulars: literature value.
In a further series the test system is Class I PI3-kinases. The conditions noted are these: literature value; read-out: IC50 against each of the various Class I PI3-kinases.

`O=c1cc(N2CCOCC2)oc2c(-c3ccccc3)cccc12` [LY294002]: on CK2 protein kinase, the pIC50 (commonly the negative decadic logarithm of the IC50, by convention in mol/L) is 5.00 to 5.30.

For `COC[C@H]1OC(=O)c2coc3c2[C@@]1(C)C1=C(C3=O)[C@@H]2CCC(=O)[C@@]2(C)C[C@H]1OC(C)=O` [wortmannin], the pIC50 in the series with Class I PI3-kinases is 8.00 to 9.00.
